Earlier results as cited in patent US9867801B2, “Amorphous solid dispersion comprising taxane, tablet comprising the same, and method for preparing the same” (HANMI PHARM. CO., LTD., priority 2014, dated 2018).
≈ marks a conversion by molar mass, not a printed value.

CC(=O)O[C@H]1C(=O)[C@@]2(C)[C@H]([C@H](OC(=O)c3ccccc3)[C@]3(O)C[C@H](OC(=O)[C@H](O)[C@@H](NC(=O)c4ccccc4)c4ccccc4)C(C)=C1C3(C)C)[C@]1(OC(C)=O)CO[C@@H]1C[C@@H]2O [paclitaxel]
water solubility: ~10 µg/mL (≈ 11.7 µM)
